By UniProt entry, the sequences of proteins in these tests, tags left out. Residues count along the entry.
UniProt Q96CG8, residues 31-243: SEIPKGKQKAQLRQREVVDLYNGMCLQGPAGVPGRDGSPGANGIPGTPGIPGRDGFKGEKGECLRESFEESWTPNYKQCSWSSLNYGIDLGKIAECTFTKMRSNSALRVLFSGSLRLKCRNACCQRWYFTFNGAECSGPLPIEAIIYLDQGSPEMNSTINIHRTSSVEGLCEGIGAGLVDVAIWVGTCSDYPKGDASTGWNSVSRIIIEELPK

According to publication doi:10.1101/2025.04.19.649636:

Molecular target: recombinant human CTHRC1 Protein (human) (UniProt Q96CG8)
Assay: affinity purification with mass spectrometry

binding: binds
B1: ADAM metallopeptidase domain 9 (ADAM9) of MOVAS cells (protein, UniProt Q61072 30-845)
chain: GRPDLEQTVHLSSYEIITPWRLTRERREALGPSSQQISYVIQAQGKQHIIHLERNTDLLPNDFVVYTYDKEGSLLSDHPNVQSHCHYRGYVEGVQNSAVAVSACFGLRGLLHLENASFGIEPLHNSSHFEHIFYPMDGIHQEPLRCGVSNRDTEKEGTQGDEEEHPSVTQLLRRRRAVLPQTRYVELFIVVDKERYDMMGRNQTAVREEMIRLANYLDSMYIMLNIRIVLVGLEIWTDRNPINIIGGAGDVLGNFVQWREKFLITRWRHDSAQLVLKKGFGGTAGMAFVGTVCSRSHAGGINVFGQITVETFASIVAHELGHNLGMNHDDGRECFCGAKSCIMNSGASGSRNFSSCSAEDFEKLTLNKGGSCLLNIPKPDEAYSAPSCGNKLVDPGEECDCGTAKECEVDPCCEGSTCKLKSFAECAYGDCCKDCQFLPGGSMCRGKTSECDVPEYCNGSSQFCPPDVFIQNGYPCQNSKAYCYNGMCQYYDAQCQVIFGSKAKAAPRDCFIEVNSKGDRFGNCGFSGSEYKKCATGNALCGKLQCENVQDMPVFGIVPAIIQTPSRGTKCWGVDFQLGSDVPDPGMVNEGTKCDAGKICRNFQCVNASVLNYDCDIQGKCHGHGVCNSNKNCHCEDGWAPPHCDTKGYGGSVDSGPTYNAKSTALRDGLLVFFFLIVPLVAAAIFLFIKRDELRKTFRKKRSQMSDGRNQANVSRQPGDPSISRPPGGPNVSRPPGGPGVSRPPGGPGVSRPPGGPGVSRPPPGHGNRFPVPTYAAKQPAQFPSRPPPPQPKISSQGNLIPARPAPAPPLYSSLT

No constants are given. Whether binding was seen depends on the method and setting. Binding seen in cells or lysates may run through a third protein. These calls come from enrichment with a bait or labelling near it, and not all partners need be listed.
